In paper doi:10.1101/2025.10.01.678329:
No constants are given. Whether binding was seen depends on the method and setting. In cells and extracts the contact can be indirect. Sequences can lack the tags named with a protein.

Biological target: T1, Riplet-HA (human), Q8IUD6
T1 chain: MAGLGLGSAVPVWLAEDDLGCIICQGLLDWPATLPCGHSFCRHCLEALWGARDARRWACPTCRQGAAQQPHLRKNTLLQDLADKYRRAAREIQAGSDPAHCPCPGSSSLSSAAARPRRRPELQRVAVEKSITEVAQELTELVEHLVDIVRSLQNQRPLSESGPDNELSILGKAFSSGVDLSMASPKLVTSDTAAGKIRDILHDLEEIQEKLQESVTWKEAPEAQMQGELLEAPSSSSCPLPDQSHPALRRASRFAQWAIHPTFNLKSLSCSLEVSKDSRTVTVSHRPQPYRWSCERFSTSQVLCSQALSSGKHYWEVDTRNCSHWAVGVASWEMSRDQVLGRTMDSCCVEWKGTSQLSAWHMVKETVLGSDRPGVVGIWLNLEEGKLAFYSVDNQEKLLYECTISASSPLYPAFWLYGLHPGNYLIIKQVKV
Assay: cross-linking
Conditions: remark: other sources report otherwise

B1: Riplet-HA, Q8IUD6 1-432 (enzyme)
chain: MAGLGLGSAVPVWLAEDDLGCIICQGLLDWPATLPCGHSFCRHCLEALWGARDARRWACPTCRQGAAQQPHLRKNTLLQDLADKYRRAAREIQAGSDPAHCPCPGSSSLSSAAARPRRRPELQRVAVEKSITEVAQELTELVEHLVDIVRSLQNQRPLSESGPDNELSILGKAFSSGVDLSMASPKLVTSDTAAGKIRDILHDLEEIQEKLQESVTWKEAPEAQMQGELLEAPSSSSCPLPDQSHPALRRASRFAQWAIHPTFNLKSLSCSLEVSKDSRTVTVSHRPQPYRWSCERFSTSQVLCSQALSSGKHYWEVDTRNCSHWAVGVASWEMSRDQVLGRTMDSCCVEWKGTSQLSAWHMVKETVLGSDRPGVVGIWLNLEEGKLAFYSVDNQEKLLYECTISASSPLYPAFWLYGLHPGNYLIIKQVKV
In the case of B1, the binding is reported as “no binding”.
